39 compounds from PubChem BioAssay AID2685 (National Center for Advancing Translational Sciences (NCATS), 2010) can be followed below.

The nature of this experiment: qHTS Assay for Lipid Storage Modulators in Drosophila S3 Cells.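 For cell number change: cells counted by Cell Tracker Red CMTPX staining in the red channel.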 To be noted: BODIPY lipid droplet fluorescence, 18-24 h; for cell number change: measured here: cell count max response, cells fed with added oleic acid. Put shortly:
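Drosophila S3 cells got compounds at several concentrations plus oleic acid (400 uM solution). Laser-scanning cytometry with 488 nm excitation read lipid droplets at 500-530 nm and cells at 575-640 nm. Percent activity was relative to 20 uM Triacsin C.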

Setting [1] is: measured here: cell number channel AC50, cells fed with added oleic acid.
The mark [2] stands for this setting: measured here: lipid fluorescence (Fed channel) AC50, cells fed with added oleic acid.

Some of the results follow. Shown are side measurements of this screen, not its main read-out; they come without a call. Most of these compounds were active or inconclusive in the main read-out, so they are no random draw. Potencies come from curve fits of mixed quality, noted in brackets.

On to `O=C(N/N=C/c1ccco1)c1csc2c1CCCC2`, for which the cell number change turned out to be 14.5%. The same measure, in the same setting: the result for `CCOC(=O)c1ccc([N+](=O)[O-])c(CS(=O)(=O)c2ccc(Cl)cc2)c1` reads 24.4%. In the case of `Cc1noc(/C=C/N(C)C)c1S(=O)(=O)N1CCN(c2ccccc2)CC1`, the cell number change turned out to be 38.4%. For the same compound, the AC50 under setting [1] is 0.0184 µM [rising, full curve, poor fit]. Moreover, the AC50 under setting [2] is 29.1 µM [rising, single point]. Regarding `CC(C)C(=O)Nc1c(C(=O)c2ccc(F)cc2)oc2ccccc12`, the cell number change was -0.506%. Further, under setting [2], the AC50 was 0.206 µM [falling, full curve, poor fit].

`Nc1nc(Cl)cc(N2CCC(c3cc(-c4ccc(Cl)cc4)n[nH]3)CC2)n1`: the cell number change is -0.96%. The AC50 under setting [2] was 29.1 µM [falling, single point]. For the compound `Cc1c(Cl)cccc1NC(=S)NC1CCN(C(C)C)CC1`, the cell number change is -11.1%. The AC50 under setting [2] is 0.116 µM [falling, full curve, poor fit]. Turning to `CCCCCC[n+]1c(-c2ccccc2)csc1Nc1ccccc1`, the cell number change is -12.8%. Under setting [2], the half-maximal activity concentration (AC50) is 16.4 µM [falling, single point]. As to `CCSc1nnc(-c2ccc(OC)cc2)o1`, the AC50 under setting [2] was 0.731 µM [rising, single point]. Take `COc1ccc(CC(=O)Oc2ccc(Br)cc2F)cc1S(=O)(=O)N1CCOCC1`: the cell number change came out at 11.3%. Moreover, the AC50 under setting [2] was 16.4 µM [falling, single point]. As to `Cc1c(NC(=O)COc2ccccc2Cl)c(=O)n(-c2ccccc2)n1C`, the cell number change was -4.64%. Also, the AC50 under setting [2] is 29.1 µM [rising, single point]. `CN(CC(=O)Nc1ccc(F)cc1)C(=O)C1CC(=O)N(Cc2ccccc2)C1` (centres undefined): the cell number change was determined as 37.6%. For the same compound, the concentration at half-maximal activity (AC50) under setting [2] is 0.1 µM [rising, full curve, poor fit]. In the case of `O=C(O)c1ccc(OCC(O)Cn2cnc3ccccc32)cc1` (centres undefined), the cell number change is -5.15%. Besides, the AC50 under setting [1] is 4.11 µM [rising, single point]. Further, the AC50 under setting [2] was 11.6 µM [falling, single point].

In the case of `O=C(O/N=C1\CCS(=O)(=O)c2sccc21)C1CC1`, the cell number change is -53.9%. Also, the concentration at half-maximal activity (AC50) under setting [1] was 16.4 µM [falling, single point]. As to `O=C(OCC(=O)N1CCCC1)c1cc([N+](=O)[O-])ccc1Cl`, the cell number change worked out at 5.41%. Moreover, the AC50 under setting [2] was 0.13 µM [falling, full curve, poor fit]. `COC(=O)c1sccc1NC(=S)N1CCCC(C)C1` (centres undefined): the cell number change was 6.47%. Further, the AC50 under setting [1] is 0.58 µM [rising, full curve]. The AC50 under setting [2] was 0.461 µM [rising, single point]. Consider `CCCCn1c(=O)n(CC(=O)Nc2ccc(C)c(Cl)c2)c(=O)c2c1ncn2Cc1ccco1`, for which the AC50 reads like this: under setting [1], 2.06 µM [rising, partial curve]; under setting [2], 0.259 µM [rising, full curve, poor fit].

Turning to `O=C(Nc1ccc(Cl)cc1)OCc1cncs1`, under setting [2], the AC50 is 6.51 µM [falling, single point]. As to `COCCNC(=O)C(=O)NNC(=O)CCc1ccccc1`, the cell number change is -10.8%. Moreover, under setting [2], the concentration at half-maximal activity (AC50) is 0.58 µM [falling, single point]. With `O=C(NC1CCCC1)C(=O)N(Cc1cccnc1)C(C(=O)NCC1CCCO1)c1ccco1` (centres undefined), the cell number change was 4.81%. Under setting [2], the AC50 was 6.51 µM [falling, single point]. Turning to `COc1ccc(-c2coc3cc(OC4OC(CO)C(O)C(O)C4O)cc(O)c3c2=O)cc1` (centres undefined), the cell number change is -0.519%. Also, under setting [2], the AC50 was 29.1 µM [rising, single point]. On to `CCOC(=O)c1cccc(NC(=O)CSc2nnc(C)n2Cc2ccccc2)c1`, for which the cell number change was found to be 5.75%. Consider `C/C(=N\Nc1ncnc2sc(C)c(C)c12)c1ccccn1`, for which the cell number change amounted to 176%. Besides, under setting [1], the AC50 is 23.1 µM [rising, single point]. In the case of `CCOC(=O)C1CCN(C(=O)C(=O)Nc2ccc3nc4n(c(=O)c3c2)CCCCC4)CC1`, the cell number change was 1.73%. As for `O=C(CN(C1CCCCC1)S(=O)(=O)c1ccccc1)N1CCCC1`, the cell number change is -136%. The AC50 under setting [1] is 20.6 µM [falling, partial curve]. Further, the AC50 under setting [2] was 29.1 µM [falling, single point]. Consider `CC(=O)c1ccc(N2CCN(c3ccccc3O)CC2)c([N+](=O)[O-])c1`, for which the cell number change was -21.4%. The AC50 under setting [2] is 29.1 µM [falling, single point]. Take `COc1ccc(NC(=O)c2cccc(NC(=O)c3ccccc3)c2)cc1`: the cell number change was -16.1%. For the same compound, the AC50 under setting [2] is 29.1 µM [falling, single point]. As for `CCc1ccc(N(C(=O)c2ccco2)C(C(=O)NC2CCCC2)c2cccnc2)cc1` (centres undefined), the AC50 by setting is: under setting [1], 0.092 µM [falling, full curve, poor fit]; under setting [2], 29.1 µM [falling, single point].

With `Cc1ccc(NNC(=O)Nc2ccc(Cl)cc2)nn1`, the cell number change was -9.19%. The AC50 under setting [2] was 0.731 µM [falling, single point]. For `O=C(OCC(=O)N(C1CCCCC1)C1CCCCC1)c1cnccn1`, the cell number change was -3.36%.

`CCc1noc(C)c1C(=O)NNC(=O)c1ccc(N(CC)CC)cc1`: the cell number change was -18.5%. For `CCOC(=O)Cc1csc(NC(=O)c2ccc(Br)cc2)n1`, the cell number change is 11.7%. In addition, the AC50 under setting [2] was 20.6 µM [falling, single point]. Turning to `COc1cccc(/C=N/NC(=O)CC(=O)NCCc2ccccc2)c1OC`, the cell number change was -9.18%. `CCC(C(=O)NCCN1CCN(C)CC1)n1c(C)c2cnn(-c3ccccc3)c(=O)c2c1C` (centres undefined): the cell number change was -8%. Also, the AC50 under setting [2] is 0.164 µM [rising, single point].

As to `O=C(c1ccccc1)C1CCN(C(=O)C2CCC(=O)N(Cc3ccccc3F)C2)CC1` (centres undefined), the cell number change is -29%. Also, the AC50 under setting [2] was 22.4 µM [falling, single point]. With `O=C(N/N=C/c1ccc(O)c(O)c1)c1ccc(CSc2cccc3cccnc23)cc1`, the cell number change was -3.54%. Moreover, the AC50 under setting [1] is 2.91 µM [rising, single point]. In addition, under setting [2], the AC50 is 3.26 µM [rising, partial curve]. For the compound `Cc1ccc(CCNC(=O)C2CCN(S(=O)(=O)N3CCOCC3)CC2)cc1`, the cell number change is 20.2%.

For the compound `CCCc1cc(=O)[nH]c(SCC(=O)N(C)C2CCS(=O)(=O)C2)n1` (centres undefined), the cell number change is 31.4%. Also, the concentration at half-maximal activity (AC50) under setting [1] is 0.116 µM [rising, full curve, poor fit]. In addition, under setting [2], the AC50 is 29.1 µM [rising, single point]. Turning to `CCCC(=O)Nc1ccc(C(=O)COC(=O)C2=COCCO2)cc1`, the cell number change was -24.1%. Besides, the AC50 under setting [1] was 0.206 µM [falling, full curve, poor fit]. `CCOC(=O)c1[nH]c(COC(=O)CCCOc2ccccc2)c(C(=O)OCC)c1C`: the cell number change was -23.3%. Also, under setting [2], the AC50 was 0.731 µM [rising, full curve, poor fit].

One may read the AC50 as the concentration giving half of the maximal activity seen. High values mean activity only at high concentration, low ones activity at low concentration.
